{
  "source": "PubChem BioAssay AID250",
  "about": "(DTP/NCI, 2004)",
  "key": {"[1]": {"system": "BDF1 mice, L1210 leukemia sc, survival T/C", "assay": "NCI In Vivo Anticancer Drug Screen. Data for tumor model L1210 Leukemia (subcutaneous) in B6D2F1 (BDF1) mice", "settings": "T/C endpoint: median survival time, higher T/C = longer survival", "in_short": "(§1)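 Read-out: T/C ratio, i.e. survival or tumor size in treated mice over that in vehicle-treated controls, from mice bearing transplantable tumors.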"}, "[2]": {"system": "BDF1 mice, L1210 leukemia sc", "assay": "NCI In Vivo Anticancer Drug Screen. Data for tumor model L1210 Leukemia (subcutaneous) in B6D2F1 (BDF1) mice", "settings": "T/C endpoint: median survival time, higher T/C = longer survival", "in_short": "as §1"}, "[3]": {"settings": "dose: 3.0 mg/kg/injection, schedule: Q03HX008 (sc), vehicle: water"}},
  "note": "The list does not hold the whole screen: it gathers tests that were run many times, whatever their T/C, doses with no T/C, and many T/C values between a quarter and a half above the control. Further doses and runs are listed elsewhere. T/C gives the treated animals as a percentage of the vehicle group. Some doses have a count of surviving animals in place of a T/C: the source holds a T/C of zero for them, seemingly a mark for toxic or unscored doses. Some survivor counts are full or nearly so, which does not show that the dose was tolerated: survival well below the control is almost never listed, so the zero probably covers shortened survival too. For some of these results: Survivors were counted at the toxicity check, usually on the fifth day, unless a day is given; later deaths do not show. Schedules are NCI's codes, read here as Q, the interval in days (D) or hours (H), X, the number of doses. Some entries were tested several times; the values are given in rising order. Brackets with × give the number of equal values in this list. Some schedule codes hold Z or #, which are not explained here. Where survival is the endpoint, this PubChem deposit counts one and a half times the control or more as active, and values a quarter to a half above the control carry no call in these data; other NCI protocols may use other cut-offs.",
  "data": [
    {"smiles": "COc1cccc2c1C(=O)c1c(O)c3c(c(O)c1C2=O)C[C@@](O)(C(=O)CO)C[C@@H]3OC1CC(N)C(O)C(C)O1", "note": "(stereo partly specified)", "values": [
      {"measurement": "T/C", "setting": "[1]; dose: 0.65 mg/kg/injection, schedule: Q03HX008 (sc), vehicle: water, evaluated on day 23", "result": "111 % of control"},
      {"measurement": "T/C", "setting": "[1]; dose: 0.65 mg/kg/injection, schedule: Q03HX008 (sc), vehicle: water, evaluated on day 30", "result": "100 % of control"},
      {"measurement": "T/C", "setting": "[1]; dose: 0.65 mg/kg/injection, schedule: Q03HX008 (sc), vehicle: water, evaluated on day 31", "result": "122 % of control"},
      {"measurement": "T/C", "setting": "[1]; dose: 0.65 mg/kg/injection, schedule: Q03HX008 (sc), vehicle: water, evaluated on day 35", "result": "100 % of control"},
      {"measurement": "T/C", "setting": "[1]; dose: 1.08 mg/kg/injection, schedule: Q03HX008 (sc), vehicle: water, evaluated on day 23", "result": "111 % of control"},
      {"measurement": "T/C", "setting": "[1]; dose: 1.08 mg/kg/injection, schedule: Q03HX008 (sc), vehicle: water, evaluated on day 30", "result": "100 % of control"},
      {"measurement": "T/C", "setting": "[1]; dose: 1.08 mg/kg/injection, schedule: Q03HX008 (sc), vehicle: water, evaluated on day 35", "result": "105 % of control"},
      {"measurement": "survivor count", "setting": "[1]; dose: 1.8 mg/kg/injection, schedule: Q03HX008 (ip), vehicle: water", "result": "8 of 8"},
      {"measurement": "T/C", "setting": "[1]; dose: 1.8 mg/kg/injection, schedule: Q03HX008 (sc), vehicle: water, evaluated on day 30", "result": "122 % of control"},
      {"measurement": "T/C", "setting": "[1]; dose: 1.8 mg/kg/injection, schedule: Q03HX008 (sc), vehicle: water, evaluated on day 31", "result": "116 % of control"},
      {"measurement": "T/C", "setting": "[1]; dose: 1.8 mg/kg/injection, schedule: Q03HX008 (sc), vehicle: water, evaluated on day 35", "result": "110 % of control"},
      {"measurement": "survivor count", "setting": "[1]; dose: 3.0 mg/kg/injection, schedule: Q01DX005 (ip), vehicle: water", "result": "8 of 8"},
      {"measurement": "survivor count", "setting": "[1]; dose: 3.0 mg/kg/injection, schedule: Q03HX008 (ip), vehicle: water", "result": "7 of 8 (2×) and 10 of 10"},
      {"measurement": "T/C", "setting": "[1]; [3]", "result": "94 % of control"},
      {"measurement": "survivor count", "setting": "[1]; [3]", "result": "10 of 10 (2×) and 8 of 8"},
      {"measurement": "survivor count", "setting": "[1]; dose: 5.0 mg/kg/injection, schedule: Q01DX005 (ip), vehicle: water", "result": "8 of 8"},
      {"measurement": "survivor count", "setting": "[1]; dose: 5.0 mg/kg/injection, schedule: Q01DX005 (sc), vehicle: water", "result": "8 of 8"},
      {"measurement": "survivor count", "setting": "[1]; dose: 16.0 mg/kg/injection, schedule: Q04DX003 (ip), vehicle: saline", "result": "6 of 10"},
      {"measurement": "survivor count", "setting": "[1]; dose: 23.0 mg/kg/injection, schedule: Q01DX001 (iv), vehicle: water", "result": "5 of 8"},
      {"measurement": "survivor count", "setting": "[1]; dose: 23.0 mg/kg/injection, schedule: Q01DX001 (sc), vehicle: water", "result": "9 of 10"},
      {"measurement": "T/C", "setting": "[2]; dose: 1.08 mg/kg/injection, schedule: Q03HX008 (sc), vehicle: water, evaluated on day 31", "result": "133 % of control"},
      {"measurement": "T/C", "setting": "[2]; dose: 1.8 mg/kg/injection, schedule: Q03HX008 (sc), vehicle: water, evaluated on day 23", "result": "127 % of control"},
      {"measurement": "T/C", "setting": "[2]; dose: 8.4 mg/kg/injection, schedule: Q01DX001 (iv), vehicle: water", "result": "125 % of control"},
      {"measurement": "T/C", "setting": "[2]; dose: 8.4 mg/kg/injection, schedule: Q01DX001 (sc), vehicle: water", "result": "133 % of control"},
      {"measurement": "T/C", "setting": "[2]; dose: 8.4 mg/kg/injection, schedule: Q04DX003 (sc), vehicle: water", "result": "138 % of control"},
      {"measurement": "T/C", "setting": "[2]; dose: 14.0 mg/kg/injection, schedule: Q01DX001 (iv), vehicle: water, evaluated on day 5", "result": "143 % of control"},
      {"measurement": "T/C", "setting": "[2]; dose: 14.0 mg/kg/injection, schedule: Q01DX001 (iv), vehicle: water, evaluated on day 34", "result": "138 % of control"}
    ]},
    {"smiles": "NC(Cc1c[nH]c2ccc(N(CCCl)CCCl)cc12)C(=O)O", "note": "(stereo unspecified)", "values": [
      {"measurement": "survivor count", "setting": "[1]; dose: 0.39 mg/kg/injection, schedule: Q01DX Z (sc), vehicle: methylcellulose (MC)", "result": "5 of 8"},
      {"measurement": "T/C", "setting": "[2]; dose: 3.0 mg/kg/injection, schedule: Q01DX Z (sc), vehicle: methylcellulose (MC)", "result": "141 % of control"},
      {"measurement": "T/C", "setting": "[2]; dose: 5.0 mg/kg/injection, schedule: Q01DX Z (sc), vehicle: methylcellulose (MC)", "result": "129 % of control"}
    ]},
    {"smiles": "NC(=S)N/N=C/c1ccc(O)cn1", "values": [
      {"measurement": "survivor count", "setting": "[1]; dose: 5.0 mg/kg/injection, schedule: Q03HX024 (sc), vehicle: other", "result": "0 of 8"},
      {"measurement": "survivor count", "setting": "[1]; dose: 8.4 mg/kg/injection, schedule: Q03HX024 (sc), vehicle: other", "result": "0 of 8"},
      {"measurement": "T/C", "setting": "[1]; dose: 14.0 mg/kg/injection, schedule: Q03HX024 (sc), vehicle: other, evaluated on day 30", "result": "150 % of control"},
      {"measurement": "T/C", "setting": "[1]; dose: 23.0 mg/kg/injection, schedule: Q03HX024 (sc), vehicle: other, evaluated on day 7", "result": "187 and 192 % of control"},
      {"measurement": "T/C", "setting": "[1]; dose: 23.0 mg/kg/injection, schedule: Q03HX024 (sc), vehicle: other, evaluated on day 30", "result": "194 % of control"},
      {"measurement": "T/C", "setting": "[1]; dose: 23.0 mg/kg/injection, schedule: Q03HX024 (sc), vehicle: other, evaluated on day 32", "result": "190 % of control"},
      {"measurement": "T/C", "setting": "[1]; dose: 39.0 mg/kg/injection, schedule: Q03HX024 (sc), vehicle: other, evaluated on day 7", "result": "188 and 194 % of control"},
      {"measurement": "T/C", "setting": "[1]; dose: 39.0 mg/kg/injection, schedule: Q03HX024 (sc), vehicle: other, evaluated on day 30", "result": "200 % of control"},
      {"measurement": "T/C", "setting": "[1]; dose: 39.0 mg/kg/injection, schedule: Q03HX024 (sc), vehicle: other, evaluated on day 32", "result": "185 % of control"},
      {"measurement": "survivor count", "setting": "[1]; dose: 400.0 mg/kg/injection, schedule: Q01DX009 (ip), vehicle: other", "result": "7 of 8"},
      {"measurement": "survivor count", "setting": "[1]; dose: 500.0 mg/kg/injection, schedule: Q04DX003 (sc), vehicle: water", "result": "5 of 8"},
      {"measurement": "survivor count", "setting": "[1]; dose: 800.0 mg/kg/injection, schedule: Q04DX003 (ip), vehicle: other", "result": "0 of 8"},
      {"measurement": "survivor count", "setting": "[1]; dose: 800.0 mg/kg/injection, schedule: Q04DX003 (sc), vehicle: other", "result": "2 of 8"},
      {"measurement": "survivor count", "setting": "[1]; dose: 833.0 mg/kg/injection, schedule: Q04DX003 (sc), vehicle: water", "result": "4 of 8"},
      {"measurement": "survivor count", "setting": "[1]; dose: 833.0 mg/kg/injection, schedule: Q11HX006 (sc), vehicle: water", "result": "0 of 8"},
      {"measurement": "survivor count", "setting": "[1]; dose: 1388.0 mg/kg/injection, schedule: Q04DX003 (sc), vehicle: water", "result": "0 of 8"},
      {"measurement": "survivor count", "setting": "[1]; dose: 1388.0 mg/kg/injection, schedule: Q11HX006 (sc), vehicle: water", "result": "0 of 8"},
      {"measurement": "T/C", "setting": "[2]; dose: 10.0 mg/kg/injection, schedule: Q03HX024 (ip), vehicle: other", "result": "138 % of control"},
      {"measurement": "T/C", "setting": "[2]; dose: 14.0 mg/kg/injection, schedule: Q03HX024 (sc), vehicle: none", "result": "130 % of control"},
      {"measurement": "T/C", "setting": "[2]; dose: 14.0 mg/kg/injection, schedule: Q03HX024 (sc), vehicle: other, evaluated on day 7", "result": "137 and 146 % of control"},
      {"measurement": "T/C", "setting": "[2]; dose: 14.0 mg/kg/injection, schedule: Q03HX024 (sc), vehicle: other, evaluated on day 32", "result": "140 % of control"},
      {"measurement": "T/C", "setting": "[2]; dose: 50.0 mg/kg/injection, schedule: Q01DX009 (ip), vehicle: other", "result": "144 % of control"},
      {"measurement": "T/C", "setting": "[2]; dose: 50.0 mg/kg/injection, schedule: Q01DX009 (sc), vehicle: other", "result": "144 % of control"},
      {"measurement": "T/C", "setting": "[2]; dose: 60.0 mg/kg/injection, schedule: Q03HX024 (sc), vehicle: other", "result": "144 % of control"},
      {"measurement": "T/C", "setting": "[2]; dose: 65.0 mg/kg/injection, schedule: Q03HX024 (sc), vehicle: none", "result": "130 % of control"},
      {"measurement": "T/C", "setting": "[2]; dose: 65.0 mg/kg/injection, schedule: Q03HX024 (sc), vehicle: other, evaluated on day 7", "result": "126 and 138 % of control"},
      {"measurement": "T/C", "setting": "[2]; dose: 65.0 mg/kg/injection, schedule: Q03HX024 (sc), vehicle: other, evaluated on day 30", "result": "144 % of control"},
      {"measurement": "T/C", "setting": "[2]; dose: 65.0 mg/kg/injection, schedule: Q03HX024 (sc), vehicle: other, evaluated on day 32", "result": "130 % of control"},
      {"measurement": "T/C", "setting": "[2]; dose: 300.0 mg/kg/injection, schedule: Q01DX009 (sc), vehicle: other", "result": "146 % of control"},
      {"measurement": "T/C", "setting": "[2]; dose: 500.0 mg/kg/injection, schedule: Q01DX Z (sc), vehicle: saline", "result": "139 % of control"},
      {"measurement": "T/C", "setting": "[2]; dose: 500.0 mg/kg/injection, schedule: Q11HX006 (sc), vehicle: water", "result": "133 % of control"}
    ]}
  ]
}
